PubChem BioAssay AID540275 (National Center for Advancing Translational Sciences (NCATS), 2011)
Screen size: about 320,000 compounds; about 620 (0.19%) were called active. Inconclusive results, whose numbers are uncertain, are shown with a selection of clear calls. Cut-off read from the data, not from the text of the source: active = activation above about 80%; inconclusive = between about 30% and that limit; inactive = weaker than that.

Sequences of proteins named here, by UniProt entry; tags and fusion partners are left off.
UniProt Q8NER1, whole entry, looked up: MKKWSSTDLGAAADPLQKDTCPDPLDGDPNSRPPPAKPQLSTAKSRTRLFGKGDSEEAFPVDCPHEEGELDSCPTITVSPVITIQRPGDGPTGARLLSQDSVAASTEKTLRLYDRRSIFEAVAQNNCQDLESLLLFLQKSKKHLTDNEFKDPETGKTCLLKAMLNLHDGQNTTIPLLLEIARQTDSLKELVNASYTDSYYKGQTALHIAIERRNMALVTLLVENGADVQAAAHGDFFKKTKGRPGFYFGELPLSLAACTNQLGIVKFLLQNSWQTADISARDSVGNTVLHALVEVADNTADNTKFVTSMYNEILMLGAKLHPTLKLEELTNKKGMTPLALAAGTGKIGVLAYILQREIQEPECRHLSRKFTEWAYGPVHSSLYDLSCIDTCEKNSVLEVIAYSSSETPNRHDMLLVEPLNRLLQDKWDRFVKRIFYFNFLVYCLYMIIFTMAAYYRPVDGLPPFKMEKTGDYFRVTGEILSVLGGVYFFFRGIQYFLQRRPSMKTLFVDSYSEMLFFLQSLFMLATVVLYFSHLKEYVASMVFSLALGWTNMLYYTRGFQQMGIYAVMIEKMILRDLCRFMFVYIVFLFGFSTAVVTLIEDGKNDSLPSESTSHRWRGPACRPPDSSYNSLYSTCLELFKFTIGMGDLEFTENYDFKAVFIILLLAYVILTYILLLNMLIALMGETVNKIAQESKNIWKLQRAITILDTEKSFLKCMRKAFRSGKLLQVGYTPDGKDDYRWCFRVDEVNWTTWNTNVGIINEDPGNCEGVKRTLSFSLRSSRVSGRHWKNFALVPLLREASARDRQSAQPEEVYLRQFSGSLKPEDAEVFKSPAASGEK

What follows are compounds tested against Transient receptor potential cation channel subfamily V member 1 (Homo sapiens) (UniProt Q8NER1) (assay: HTS Assay for Compounds that Act as Agonists of the Vanilloid Receptor 1). Details: TRPV1-expressing cells, Fluo-8 calcium influx, agonist mode; at 8.33 µM, active compounds read high.
How it was run: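 Cells expressing TRPV1 were dye-loaded with Fluo-8 and read kinetically: 10 s baseline, 3 min after compound (agonist portion), then 2 min after EC20 capsaicin (allosteric enhancer portion). Calcium-bound dye fluorescence at 480/520 nm.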
Note: 0% is about no effect.

Row | SMILES | activation
1 | CCn1c(SCc2ccccc2)nc2cc(S(N)(=O)=O)ccc21 | inconclusive: 40.7%
2 | Cc1cc(C)c(/C=C(\C#N)C(N)=S)c(C)c1 | inconclusive: 31.2%
3 | Cc1cc(C(=O)NCC2CCCCC2)ccc1[N+](=O)[O-] | inconclusive: 66.8%
4 | O=C(CCC(=O)OCc1ccc(Cl)cc1)Nc1cccc([N+](=O)[O-])c1 | inconclusive: 42.8%
5 | Cc1ccc(-n2cccn2)c(CN2CCCC(C(=O)c3sccc3C)C2)c1 (stereo not given) | inactive: -0.0777%
6 | O=C(Oc1ccc(-c2cn3c(n2)SCC3)cc1)c1ccccc1 | inconclusive: 39.2%
7 | COc1cc(NC(=O)c2cccs2)c(C(=O)OCC(=O)NCc2ccco2)cc1OC | inconclusive: 33.5%
8 | Cc1noc(C)c1S(=O)(=O)N1CCC(C(=O)NCCc2ccc(S(N)(=O)=O)cc2)CC1 | inconclusive: 60.3%
9 | Cc1cc(CCCCCCCCc2cc(C)cc(=O)o2)oc(=O)c1 | inconclusive: 43%
10 | Clc1ccc(/C=C\c2nccc3c2[nH]c2ccccc23)cc1 | inconclusive: 46.3%
11 | COC(=O)c1ccc(NS(=O)(=O)c2ccc(Cl)cc2)o1 | inactive: -0.682%
12 | Cc1nc2ccc(NC(=O)Cc3ccccc3F)cc2s1 | inconclusive: 44.5%
13 | CCOc1ccc(N(C)S(=O)(=O)c2ccc(-c3cc(C)no3)s2)cc1 | inconclusive: 35.2%
14 | CC(C)c1ccc(NC2CCCN(C(=O)CCc3cn[nH]c3)C2)cc1 (stereo not given) | inconclusive: 42.5%
15 | Cc1cc(C(=O)N2CCc3c([nH]c4ccccc34)C2c2cccc(Cl)c2)nn1C (stereo not given) | inconclusive: 45.7%
16 | CCCn1c(/C=C/c2ccccc2)nc2ccccc21 | inconclusive: 64.6%
17 | Cc1ccc(C)c(OCCC(=O)N2CCN(S(=O)(=O)c3cc(F)ccc3F)CC2)c1 | inconclusive: 52.8%
18 | O=c1c(-c2ccc(F)cc2)coc2cc(O)ccc12 | inactive: -2.45%
19 | Cc1c(C(=O)N2CCOCC2)sc2ncnc(N3CCc4ccccc4C3)c12 | inconclusive: 35.9%
20 | Cc1ccc(O)c(NC(=O)CCC2CCCCC2)c1 | inconclusive: 69.7%
21 | Cc1cc(=O)[nH]c(SCCOc2cccc(C(F)(F)F)c2)n1 | inconclusive: 45.5%
22 | O=C(NC12CC3CC(CC(C3)C1)C2)c1cccc([N+](=O)[O-])c1 | inconclusive: 34.3%
23 | O=C(CNC(c1ccccc1)c1ccccc1)NCc1ccccc1Cl | inconclusive: 38.6%

Row | SMILES | activation
24 | COc1cc(Cl)c(C)cc1NC(=O)CCCN1C(=O)CCC1=O | inactive: 0.644%
25 | CCC(C)(C)C1CCC(=NNC(=O)c2ccc(Br)o2)CC1 (stereo not given) | inconclusive: 39.2%
26 | COc1ccc2cc3cc(C(=O)N4CCCCC4C)oc3nc2c1 (stereo not given) | inconclusive: 30.3%
27 | Cc1cc(=O)oc2cc(OCc3ccc(C(=O)N4CCN(c5ccccc5)CC4)cc3)ccc12 | inactive: -10.9%
28 | CN(C)c1ccc(N=Nc2ccccc2C(=O)OCC(=O)N(C)C2CCCCC2)cc1 | inconclusive: 47.1%
29 | Cc1cccc(Nc2nc(NCc3ccco3)nc(N3CCOCC3)n2)c1 | inconclusive: 55.3%
30 | S=C(Nc1ccc(Oc2ccccc2)cc1)Nc1cccnc1 | inconclusive: 41.5%
31 | CCOC(=O)N1CCN(CC(=O)Nc2c(C(=O)OC)[nH]c3cc(C)ccc23)CC1 | inconclusive: 41.4%
32 | CC(C)C(=O)N1CCN(c2ccccc2NC(=O)c2cccc(Cl)c2)CC1 | inconclusive: 38.9%
33 | COc1ccc(NC(=S)NC(NC(=O)c2cccc(Cl)c2)C(Cl)(Cl)Cl)c([N+](=O)[O-])c1 (stereo not given) | inconclusive: 30.9%
34 | O=C(c1ccoc1)N1CCCC(N2CCN(c3cccc(Cl)c3)CC2)C1 (stereo not given) | inactive: 1.44%
35 | C=CCOC(=O)C(=O)/C=C/c1csc2ccccc12 | inactive: 27.1%
36 | O=S(=O)(NC1CCCCCCC1)c1ccccc1 | inactive: 7.79%
37 | COc1cc(-c2nnc3n2N=C(c2ccccc2)CS3)cc(OC)c1OC | inconclusive: 53.9%
38 | CC(C)Oc1cccc(C(=O)NC(=S)NCc2cccnc2)c1 | inactive: -0.192%
39 | Cc1ccc(C(=O)N2CCCC(Nc3ccc(F)cc3)C2)cc1C (stereo not given) | inconclusive: 74.7%
40 | Cc1ccc(-n2ncc3c2CC(C)(C)CC3NC(=O)Cc2c(C)noc2C)cc1 (stereo not given) | inconclusive: 47.8%
41 | C=CCc1cc(C(=O)N2CCCCC2)ccc1O | inactive: 4.41%
42 | CCOc1ccc(/C=N/NC(=S)Nc2c(C)cccc2C)cc1 | inactive: 1.74%
43 | CCCN(CCC)C(C)C(=O)NCC1(c2ccccc2)CCCC1 (stereo not given) | inconclusive: 50.3%
44 | CCC1Nc2ncnc(N3CCN(c4ccccn4)CC3)c2N(Cc2ccc(Cl)cc2)C1=O (stereo not given) | inconclusive: 39.6%
45 | Cc1cc(S(=O)(=O)N2CCN(c3ncccn3)CC2)ccc1-n1cnnn1 | inconclusive: 50.3%
46 | C=CCOc1ccccc1C1C2=C(CC(C)(C)CC2=O)Nc2c1c(=O)n(C)c(=O)n2C (stereo not given) | inactive: -1.82%

Row | SMILES | activation
47 | COc1cc(O)c(C(CC(=O)N2CCCCC2)c2cc(OC)c(OC)c(OC)c2)c(OC)c1 (stereo not given) | inactive: 1.29%
48 | CN1CCN(C(=O)c2c(NC(=O)c3ccco3)sc3c2CCC(C(C)(C)C)C3)CC1 (stereo not given) | inactive: 1.23%
49 | CC(C)Oc1cccc(OCCN2C(=O)c3ccccc3C2=O)c1 | inconclusive: 51.9%
50 | CC(C)(C)c1ccc(C(=O)CSc2n[nH]c(=O)[nH]c2=O)cc1 | inconclusive: 41.4%
51 | S=C(Nc1ccccc1)N1CCC(Cc2ccccc2)CC1 | inconclusive: 31.7%
52 | CC(C)CC1Nc2ncnc(N3CCN(c4ccccn4)CC3)c2N(Cc2ccc(Br)cc2)C1=O (stereo not given) | inconclusive: 62.6%
53 | CCCCOc1ncnc2c1[nH]c1ccc(F)cc12 | inconclusive: 42.7%
54 | CCN(CC)Cc1c(C(=O)N/N=C/c2ccc(C)o2)nnn1-c1nonc1N | inactive: -0.0864%
55 | COc1cc(OC)cc(C(=O)NC(C(=O)N2CCc3ccccc3C2)C(C)C)c1 (stereo not given) | inconclusive: 31.5%
56 | Cc1nn2c(N3CCN(C)CC3)cc(C(C)(C)C)nc2c1-c1ccccc1 | inconclusive: 33.3%
57 | Cc1ccc(-c2nnc(Cc3ccc([N+](=O)[O-])cc3)o2)cc1 | inconclusive: 50%
58 | Cc1cccc(/C=N/NC(=O)c2ccc(Br)cc2)c1 | inconclusive: 61.1%
59 | Cc1ccc(NC(=O)c2c([N+](=O)[O-])c(C(C)(C)C)nn2C)cc1 | inconclusive: 66.4%
60 | CCN(CC)CC(O)Cn1c2ccccc2c2ccccc21 (stereo not given) | inactive: 4.02%
61 | O=C(c1cc(-c2ccccc2Cl)on1)N1CCCC1 | inconclusive: 43.5%
62 | O=C(Nc1ccc(Cl)c(Cl)c1)C1CCCCC1 | inconclusive: 46.4%
63 | O=C(/C=C/c1ccc(Cl)cc1Cl)Nc1ccncc1 | inconclusive: 75.2%
64 | O=C(c1ccc(Br)o1)N1CCN(Cc2ccc3c(c2)OCO3)CC1 | inactive: 22.2%
65 | CC(C)Oc1ccc(C(=O)NC2=NCCS2)cc1 | inactive: 18.1%
66 | CCOC(=O)c1ccc(Nc2ncnc3ccccc23)cc1 | inconclusive: 68.2%
67 | Clc1ccc2nc(COc3ccccc3)[nH]c2c1 | inconclusive: 46%
68 | Cc1cc(C2=NNC(=Nc3ccc(S(=O)(=O)N4CCOCC4)cc3)SC2)c(C)n1C | inactive: -5.99%
69 | Cc1ccc(-c2nc(CCNC(=O)c3ccco3)cs2)cc1 | inconclusive: 52.7%

A section from further up:
Row | SMILES | activation
9 | Cc1cc(CCCCCCCCc2cc(C)cc(=O)o2)oc(=O)c1 | inconclusive: 43%
10 | Clc1ccc(/C=C\c2nccc3c2[nH]c2ccccc23)cc1 | inconclusive: 46.3%
11 | COC(=O)c1ccc(NS(=O)(=O)c2ccc(Cl)cc2)o1 | inactive: -0.682%
12 | Cc1nc2ccc(NC(=O)Cc3ccccc3F)cc2s1 | inconclusive: 44.5%

Next part.

Row | SMILES | activation
70 | O=C(C1CCN(S(=O)(=O)c2ccccc2F)CC1)N1CCc2ccccc2C1 | inconclusive: 36.6%
71 | Cc1ccc(/C=C(\C#N)C(=O)NC(C)c2ccccc2)o1 (stereo not given) | inactive: 9.06%
72 | COc1ccccc1N1CCN(C(=O)Nc2ccc(F)c(Cl)c2)CC1 | inconclusive: 39.4%
73 | COc1ccc(OCc2cc(C(=O)N3CCC(c4ccccc4)CC3)no2)c(Cl)c1 | inconclusive: 30.6%
74 | O=C(COC(=O)CNC(=O)c1ccc(Cl)c([N+](=O)[O-])c1)NCC1CCCO1 (stereo not given) | inactive: -2.42%
75 | COc1ccc(NC(=O)/C(C#N)=C\c2ccc(N3CCOCC3)o2)cc1 | inconclusive: 36.5%
76 | CC(C)COc1ccc(C(=O)N2C(=O)c3ccc(N)cc3C2=O)cc1 | inconclusive: 67.1%
77 | CCCCC[C@H](O)/C=C/[C@H]1CCC(=O)[C@@H]1CCCCCCC(=O)N1CCCCC1CO (stereo not given in full) | inconclusive: 39.3%
78 | Cc1cc(C(=O)N2CCCC(Nc3ccccc3)C2)c2ccc(F)cc2n1 (stereo not given) | inconclusive: 50%
79 | Cc1ncsc1C(=O)Nc1nc2c(s1)CC(C)CC2 (stereo not given) | inconclusive: 37.3%
80 | O=C(N/N=C/c1ccc2c(c1)OCO2)c1ccc(NC(=O)c2ccccc2Cl)cc1 | inconclusive: 64.2%
81 | C=CCn1c(COc2ccccc2F)nnc1SCC(=O)c1c[nH]c2ccccc12 | inactive: 4.61%
82 | COc1ccc(CCNC(=S)NC(=O)c2ccc(Br)cc2)cc1OC | inactive: 7.53%
83 | CC(C)c1cc(Br)ccc1OCCCN1C(=O)NC(C)(C)C1=O | inconclusive: 73.5%
84 | COc1ccccc1N1CCN(/N=C/c2ccc(O)c(O)c2)CC1 | inconclusive: 48.7%
85 | CSc1ccccc1C(=O)Nc1ccccc1C(=O)NC(C)C | inconclusive: 35.8%
86 | CC(=O)c1ccccc1Oc1cc(NN2CCCCC2)c([N+](=O)[O-])cc1[N+](=O)[O-] | inconclusive: 49.3%
87 | CCC1=Nc2cc(C(=O)NCCN3CCOCC3)ccc2Sc2ccc(Br)cc21 | inconclusive: 30.1%
88 | COc1cccc(-c2nc(CS(=O)(=O)CC(=O)NCc3ccc(Cl)cc3)c(C)o2)c1 | inconclusive: 31.1%
89 | O=C(NCCCc1ccccc1)c1cccc(S(=O)(=O)N2CCOCC2)c1 | inconclusive: 35.9%
90 | CCc1ccccc1NC(=S)N(CCOC)C(C)c1ccco1 (stereo not given) | inactive: -2.58%

Retrieved by structure from the list above, two records:
Row | SMILES | activation
90 | CCc1ccccc1NC(=S)N(CCOC)C(C)c1ccco1 (stereo not given) | inactive: -2.58%
59 | Cc1ccc(NC(=O)c2c([N+](=O)[O-])c(C(C)(C)C)nn2C)cc1 | inconclusive: 66.4%
